Laboratory results: PubChem BioAssay AID2685 (National Center for Advancing Translational Sciences (NCATS), 2010)
This is one part of the list. Further columns of the screen follow, without active or inactive calls. Most of these compounds were active or inconclusive in the main read-out, so they are no random draw. Potencies come from curve fits of mixed quality, noted in brackets.

Assay: qHTS Assay for Lipid Storage Modulators in Drosophila S3 Cells;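 on cell number change: cells counted by Cell Tracker Red CMTPX staining in the red channel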
Conditions: BODIPY lipid droplet fluorescence, 18-24 h; for cell number change: measured here: cell count max response, cells fed with added oleic acid
Summary of the method: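 Laser-scanning cytometry quantifies lipid droplet accumulation (500–530 nm total intensity; droplet/cell object ratio) in oleic acid-fed (400 uM added) Drosophila S3 cells treated with a concentration series. 20 uM Triacsin C defined 100% inhibition.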

[1] = measured here: lipid fluorescence (Fed channel) AC50, cells fed with added oleic acid
[2] = measured here: cell number channel AC50, cells fed with added oleic acid

Question: Which cell number change does the source give for Cc1c[nH]c2cccc(OCC(CNC(C)(C)C)OC(=O)c3ccccc3)c12 (centres undefined) here?
Answer: -1.77%

Question: What about the AC50 [1] of the same compound?
Answer: 29.1 µM [rising, single point]

Question: For O=C(CCCOc1ccccc1)N1CCN(S(=O)(=O)c2ccccc2)CC1, which cell number change is on record?
Answer: 9.64%

Question: What about the AC50 [1] of the same compound?
Answer: 6.51 µM [rising, single point]

Question: For CC(=O)c1cccc(NC(=O)CN2C(=S)NC(C)(C)CC2C)c1 (centres undefined), which AC50 [1] is on record?
Answer: 6.51 µM [falling, partial curve]

Question: What does the source list for CCCS(=O)(=O)N1CCC(C(=O)NC2CCCC(C)C2C)CC1 (centres undefined)?
Answer: cell number change: -32.4%; AC50 [1]: 18.4 µM [rising, single point]

Question: With CCSc1cc(N2CCCC2)nc(-c2ccc(F)cc2)n1 as the compound, how does the cell number change read?
Answer: -24.5%

Question: Which results are given for COc1ccc(-n2c(CCc3ccccc3)nnc2SCC(=O)NCc2ccccc2)cc1?
Answer: cell number change: 41.1%; AC50 [2]: 14.6 µM [rising, partial curve, poor fit]

Question: With Cc1[nH]n(-c2ccccc2)c(=O)c1N=Nc1c(O)cc(S(=O)(=O)N(C)C)c2ccccc12 as the compound, how does the cell number change read?
Answer: 28.1%

Question: What about the AC50 [1] of the same compound?
Answer: 14.6 µM [rising, partial curve]

Question: For Cc1ccnc(Sc2ccc([N+](=O)[O-])cc2[N+](=O)[O-])n1, which cell number change is on record?
Answer: -55.6%

Question: And the AC50 [2]?
Answer: 5.17 µM [falling, full curve, poor fit]

Question: What about the AC50 [1] of the same compound?
Answer: 29.1 µM [falling, single point]

Question: With CC(Sc1nnnn1C)C(=O)Nc1ccccc1-c1ccccc1 (centres undefined) as the compound, how does the cell number change read?
Answer: -18%

Question: And the AC50 [1]?
Answer: 0.164 µM [falling, full curve, poor fit]

Question: With Cc1cccc(-c2nc(=S)c3c(n2Cc2ccco2)CCCC3)c1 as the compound, how does the cell number change read?
Answer: 10.8%

Question: For CCCCC(=O)NC(=S)Nc1c(C)cc(Br)cc1C, which cell number change is on record?
Answer: 9.92%

Question: And the AC50 [2]?
Answer: 2.31 µM [rising, partial curve, poor fit]

Question: What does the source list for c1ccc(Nc2ccc3c4c(cccc24)CC3)cc1?
Answer: cell number change: -44.6%; AC50 [2]: 20.6 µM [falling, single point]; AC50 [1]: 20.6 µM [falling, single point]

Question: What does the source list for CC(=O)Nc1ccc(C(=O)OCc2ccc(F)cc2Cl)cc1?
Answer: cell number change: -9.82%; AC50 [2]: 0.731 µM [rising, full curve, poor fit]; AC50 [1]: 6.51 µM [rising, partial curve, poor fit]

Question: Which cell number change does the source give for CC(=O)Nc1c2c(nn1-c1cccc(Cl)c1)CS(=O)(=O)C2 here?
Answer: 17.7%

Question: What about the AC50 [1] of the same compound?
Answer: 6.51 µM [falling, single point]

Question: With Cc1ccc2nc(SCC(=O)c3c(C)[nH]c4ccccc34)[nH]c2c1 as the compound, how does the cell number change read?
Answer: -12.2%

Question: And the AC50 [1]?
Answer: 29.1 µM [falling, single point]

Question: With O=C(Nc1ccccc1)Nc1ccccc1-n1ccnc1 as the compound, how does the cell number change read?
Answer: 29.8%

Question: And the AC50 [1]?
Answer: 20.6 µM [rising, partial curve]

Question: What does the source list for O=C(OCCO)c1cc(Cl)c(C(=O)OCCO)cc1Cl?
Answer: cell number change: 4.33%; AC50 [1]: 1.46 µM [falling, full curve, poor fit]

Question: Which cell number change does the source give for O=C(C1CCN(S(=O)(=O)c2ccc(Cl)cc2)CC1)N1CCCC1 here?
Answer: 3.95%

Question: And the AC50 [1]?
Answer: 5.62 µM [rising, single point]

Question: With Cc1ccc(C#CC(C)(O)C(C)(C)C)cn1 (centres undefined) as the compound, how does the AC50 [2] read?
Answer: 0.58 µM [falling, single point]

Question: For CCOc1ccc2[nH]c(=O)c(CN(CCO)C(=O)c3ccccc3F)cc2c1, which cell number change is on record?
Answer: 40%

Question: What about the AC50 [2] of the same compound?
Answer: 23.1 µM [rising, single point]

Question: Which results are given for COc1cccc(NC(=O)Cn2c(SCC(=O)N3CCOCC3)nc3ccccc32)c1?
Answer: AC50 [2]: 1.64 µM [rising, partial curve]; AC50 [1]: 20.6 µM [rising, partial curve]

Question: What does the source list for COc1ccc(-c2nn(-c3ccccc3)cc2/C=C2/SC(=S)N(CCC(=O)O)C2=O)c(C)c1?
Answer: cell number change: -35.7%; AC50 [2]: 9.2 µM [falling, partial curve, poor fit]; AC50 [1]: 29.1 µM [falling, single point]

Question: For O=C(CNC(=O)c1ccc(Br)cc1)NCC(=O)OCC(=O)c1ccccc1, which cell number change is on record?
Answer: 34.4%

Question: Which cell number change does the source give for CCc1noc(C)c1C(=O)OCC(=O)Nc1ccccc1SC here?
Answer: 25%

Question: And the AC50 [2]?
Answer: 3.26 µM [falling, single point]

Question: Which results are given for COC(=O)c1ccc(OC(=O)c2cccs2)cc1?
Answer: cell number change: -7.46%; AC50 [2]: 5.8 µM [falling, partial curve, poor fit]; AC50 [1]: 2.06 µM [falling, partial curve, poor fit]

Question: For CCCc1nnc(SCC(=O)Nc2ccc3c(c2)OCCO3)n1CCOC, which cell number change is on record?
Answer: -9.21%

Question: What does the source list for CC(=O)Nc1ccc(S(=O)(=O)N2CCN3CCCC3C2)cc1 (centres undefined)?
Answer: cell number change: -13%; AC50 [2]: 5.17 µM [falling, single point]

Question: With CCN(CC(=O)Nc1c(F)cccc1F)C(=O)CCOc1ccccc1 as the compound, how does the cell number change read?
Answer: 5.14%

Question: What about the AC50 [2] of the same compound?
Answer: 6.51 µM [rising, single point]

Question: What does the source list for Cc1cc(C)cc(NC(=O)c2oc3ccccc3c2COc2ccccc2)c1?
Answer: cell number change: 27%; AC50 [1]: 1.64 µM [rising, partial curve, poor fit]

Question: With O=C(CN1C(=O)c2cccc3cccc(c23)C1=O)N1CCCCC1 as the compound, how does the cell number change read?
Answer: 2.19%

Question: What about the AC50 [1] of the same compound?
Answer: 6.51 µM [rising, single point]

Question: With O=C(C1CC(=O)N(c2ccc(F)cc2)C1)N1CCCCC1 (centres undefined) as the compound, how does the cell number change read?
Answer: 19.1%

Question: What about the AC50 [1] of the same compound?
Answer: 1.16 µM [falling, single point]

Question: Which cell number change does the source give for Cc1cccc(N=Nc2c(N)n[nH]c2N)c1 here?
Answer: -24.2%

Question: What about the AC50 [1] of the same compound?
Answer: 0.651 µM [falling, partial curve, poor fit]

Question: For Cc1cc(=O)oc2cc(OC(C)C(=O)Nc3nccs3)ccc12 (centres undefined), which cell number change is on record?
Answer: -4.15%

Question: And the AC50 [1]?
Answer: 7.31 µM [rising, partial curve, poor fit]

Question: Which AC50 [1] does the source give for COc1cc(/C=C/C(=O)OCC(=O)N(C)Cc2ccccc2)ccc1O here?
Answer: 0.517 µM [falling, full curve]

Question: Which cell number change does the source give for Cc1ccc(NN2C(=O)C=C(c3ccc(Cl)cc3)C2=O)cc1 here?
Answer: -87.2%

Question: And the AC50 [1]?
Answer: 9.2 µM [falling, single point]

Question: What does the source list for CC[n+]1c(C)n(-c2ccccc2)c2ccc(NC(C)=O)cc21?
Answer: cell number change: -54.2%; AC50 [2]: 29.1 µM [falling, partial curve, poor fit]; AC50 [1]: 29.1 µM [falling, single point]

Question: With C/C(=N\NC(=O)CCc1ccccc1)c1ccc(Br)cc1 as the compound, how does the AC50 [2] read?
Answer: 3.26 µM [rising, partial curve]

Question: With N=c1ccn(Cc2cccc(Cl)c2)cc1 as the compound, how does the cell number change read?
Answer: -53.7%

Question: And the AC50 [2]?
Answer: 6.51 µM [falling, partial curve, poor fit]

Question: And the AC50 [1]?
Answer: 9.2 µM [falling, partial curve]

Question: Which results are given for O=C(Nc1ccncc1)c1c(F)cccc1F?
Answer: cell number change: 62.5%; AC50 [2]: 7.31 µM [rising, partial curve]; AC50 [1]: 3.66 µM [rising, single point]

Question: Which cell number change does the source give for COc1ccc(N2CC(C(=O)Nc3nnc(C4CCCCC4)s3)CC2=O)cc1 (centres undefined) here?
Answer: 10.3%

Question: Which results are given for CSc1nc2ccc(NC(=O)c3ccc(F)c(F)c3)cc2s1?
Answer: cell number change: 38.3%; AC50 [1]: 1.03 µM [rising, partial curve, poor fit]

Question: For NNC(=O)C1COc2cc3ccccc3cc2O1 (centres undefined), which cell number change is on record?
Answer: 12.4%

Question: For N#CC1=C(S)N(c2ccccc2)C(c2ccc(-c3cccc(Cl)c3)o2)NC1=O (centres undefined), which cell number change is on record?
Answer: 67.6%

Question: What about the AC50 [2] of the same compound?
Answer: 14.6 µM [rising, partial curve, poor fit]

Question: Which cell number change does the source give for CN(C)CCOC(=O)C1(c2ccccc2)CCCC1 here?
Answer: 36.9%

Question: And the AC50 [2]?
Answer: 2.91 µM [rising, full curve]

Question: What about the AC50 [1] of the same compound?
Answer: 6.51 µM [rising, full curve, poor fit]

Question: Which AC50 [2] does the source give for CCOC(=O)N1CCC(NC(=O)CC(NS(=O)(=O)c2ccc(C)cc2)c2ccco2)CC1 (centres undefined) here?
Answer: 2.91 µM [rising, single point]

Question: For O=C(CSc1ccc(-c2ccccc2)nn1)Nc1ccc2c(c1)OCCO2, which cell number change is on record?
Answer: -6.74%

Question: What about the AC50 [2] of the same compound?
Answer: 6.51 µM [rising, single point]

Question: And the AC50 [1]?
Answer: 1.46 µM [rising, full curve]

Question: Which cell number change does the source give for Cc1cccc(OCCNC(=O)c2cncc(Br)c2)c1 here?
Answer: -1.76%

Question: For CCCCc1cc(=O)oc2cc(OCC(=O)NCc3ccccn3)ccc12, which cell number change is on record?
Answer: -20.9%

Question: And the AC50 [1]?
Answer: 7.31 µM [falling, partial curve]

Question: For O=C(CSc1nncn1-c1cccnc1)Nc1cccc(C(F)(F)F)c1, which cell number change is on record?
Answer: -10%

Question: Which cell number change does the source give for CC(NC(=O)c1ccc(N(C)C)cc1)c1ccc(F)cc1 (centres undefined) here?
Answer: 4.56%

Question: What about the AC50 [1] of the same compound?
Answer: 4.11 µM [rising, single point]

Question: For COc1ccc(N2CCN(C(=O)Cc3csc(NC(=O)Nc4ccccc4OC)n3)CC2)cc1, which cell number change is on record?
Answer: 69.2%

Question: And the AC50 [2]?
Answer: 18.4 µM [rising, single point]

Question: And the AC50 [1]?
Answer: 0.103 µM [rising, full curve, poor fit]

Question: Which results are given for O=C(CCSCc1ccccc1F)N1CCN(c2ccccn2)CC1?
Answer: cell number change: 20.5%; AC50 [1]: 11.6 µM [rising, partial curve]

Question: With CCOC(=O)N1CCC(NC(=O)c2csc3c2CCCC3)CC1 as the compound, how does the cell number change read?
Answer: -56.2%

Question: What about the AC50 [2] of the same compound?
Answer: 20.6 µM [falling, partial curve]

Question: What about the AC50 [1] of the same compound?
Answer: 14.6 µM [falling, partial curve]

Question: With OCCCNCc1ccc(-c2ccccc2)cc1 as the compound, how does the cell number change read?
Answer: 44.7%

Question: What about the AC50 [2] of the same compound?
Answer: 0.0116 µM [rising, full curve, poor fit]

Question: And the AC50 [1]?
Answer: 32.6 µM [rising, single point]

Question: Which cell number change does the source give for CCOC(=O)c1ccc(NC(=O)CC2OCCN(CC)C2=O)cc1 (centres undefined) here?
Answer: 3.1%

Question: Which cell number change does the source give for O=c1ccccn1CCOc1ccccc1Cl here?
Answer: 5.32%

Question: What about the AC50 [1] of the same compound?
Answer: 3.26 µM [rising, partial curve, poor fit]

Question: What does the source list for O=C(C1=C(O)C(=O)N(CCCN2CCOCC2)C1c1ccncc1)c1cc2ccccc2o1 (centres undefined)?
Answer: cell number change: 12%; AC50 [1]: 0.0326 µM [rising, full curve, poor fit]

Question: Which cell number change does the source give for O=C(O)Cc1ccc(-n2cccc2)cc1 here?
Answer: 2.12%

Question: For Cn1c(=O)oc2cc(S(=O)(=O)N3CCCc4ccccc43)ccc21, which cell number change is on record?
Answer: 0.786%

Question: For Cc1ccc(N(C)S(=O)(=O)c2cccc(C(=O)NCC(c3cccs3)N3CCOCC3)c2)cc1 (centres undefined), which cell number change is on record?
Answer: 28.2%

Question: Which cell number change does the source give for c1ccc2c(Cn3nnc4ccccc43)cccc2c1 here?
Answer: -1.15%

Question: For O=C(CSCc1c(F)cccc1F)Nc1ccccc1, which cell number change is on record?
Answer: 3.67%

Question: What about the AC50 [1] of the same compound?
Answer: 6.51 µM [rising, single point]
